# Reference: patent US5482934A, “Pregna-1,4-diene3,20-dione-16-17-acetal-21 esters, process for their preparation, composition, and methods for the treatment of inflammatory conditions” (priority 1994, dated 1996)
# System: cotton-pellet-induced granuloma
# Test: cotton pellet granuloma bioassay, topical anti-inflammatory activity (inhibitory effect on granuloma weight)
# Format: in vivo, Male Wistar rats
# Details: budesonide = 1
# Source text: The glucocorticoid activity of these products was studied in comparison with that of budesonide: pregna-1,4-diene-3,20-dione, 16,17-butylidenebis(oxy)-11-21-dihydroxy-(11β,16α). The pharmacologic action on the acetonides triamcinolone acetonide and flunisolide was also studied.
# Anti-inflammatory effects of the compounds were screened in the cotton pellet granuloma bioassay for identification of lead compounds. (Meier et al., Eperimentia 6, 469, 1950). Male Wistar rats were used, ranging in weight between 90 and 120 g, at the rate of 10 animals per group, previously identified and quartered in individual cages. The animals had free access to feed and drink throughout the trial.
# Cotton pellets weighing exactly 20 mg were prepared, sterilized for 2 hr. at 160° C. soaked with 50 λl solution of the product or with the solvent before implantation, and subsequently the solvent is evaporated before application. The implantation was performed subcutaneously in the axillary zone of the animals previously anesthetized with ether (right axilla pellet with product, left axilla pellet with solvent). Animals in which pellets without product were implanted were used as controls.
# The drug was applied in alcohol solution at 4 dosage levels. Once the pellets were implanted, the animals were kept under normal rearing conditions, isolated for 7 days and then weighed, after which they were sacrificed by exsanguination.
# The topical activity was determined by the inhibitory effect on the weight of the cotton-pellet-induced granuloma; the granulomas were extracted and weighed (pellet and connective tissue surrounding them, dried for 24 hr in a 60° oven, and weighed).
# Anti-inflammatory ED50 (topical effect), thymus inhibition ED50 (systemic effect), therapeutic index (systemic ED50 /topical ED50), and the therapeutic index relative to budesonide (=1).
# All of the ED50 values were calculated from the linear regression lines with the confidence limits.
row,Compound,Therapeutic index with respect to budesonide
1,"CC1(C)O[C@@H]2C[C@H]3[C@@H]4CCC5=CC(=O)C=C[C@]5(C)[C@@]4(F)[C@@H](O)C[C@]3(C)[C@]2(C(=O)CO)O1 (stereo in doubt) [TRIAMCINOLONE ACETONIDE, triamcinolone acetonide, reference compound]",0.6
2,"CCCC1O[C@@H]2C[C@H]3[C@@H]4CCC5=CC(=O)C=C[C@]5(C)[C@H]4[C@@H](O)C[C@]3(C)[C@]2(C(=O)CO)O1 (stereo partly drawn) [BUDESONIDE, pregna-1,4-diene-3,20-dione, 16,17-butylidenebis(oxy)-11-21-dihydroxy-(11β,16α), reference compound]",1
3,"CC(C)C(=O)OCC(=O)C12OC(C3CCCCC3)OC1CC1C3CCC4=CC(=O)C=CC4(C)C3C(O)CC12C [Compound 7, (22R,S)-pregna 1,4-diene-3,20-dione, 16,17-[[cyclohexylmethylidyne]bis (oxy)]-11-hydroxy-21-(2-methyl-1-oxo-propoxy)-(11β,16α)]",26
4,"CC(C)C(=O)OCC(=O)C12OC(C3CCCCC3)OC1CC1C3CCC4=CC(=O)C=CC4(C)C3C(O)CC12C [Compound 8, (22,S)-pregna 1,4-diene-3,20-dione 16,17-[[cyclohexyl-methylidyne]bis (oxy)]-11-hydroxy-21-(2-methyl-1-oxo-propoxy)-(11β,16α)]",27.2
5,CC(C)C(=O)OCC(=O)C12OC(C3CCCCC3)OC1CC1C3CCC4=CC(=O)C=CC4(C)C3C(O)CC12C (stereo not drawn) [Compound 9],24.5
6,"CCCCC1OC2CC3C4CCC5=CC(=O)C=CC5(C)C4C(O)CC3(C)C2(C(=O)COC(C)=O)O1 [Compound 10, (22R,S)-of pregna 1,4-diene-3,20-dione-21-(acetyloxy)-11-hydroxy-16,17-(pentylidene) bis(oxy)-(11β,16α)]",8.9
7,"CCCCC1OC2CC3C4CCC5=CC(=O)C=CC5(C)C4C(O)CC3(C)C2(C(=O)COC(C)=O)O1 [Compound 11, (22S)-pregna 1,4-diene-3,20-dione-21-(acetyloxy)-11-hydroxy-16,17-(pentylidene)-bis-(oxy)-(11β,16α)]",11.8
8,CCCCC1OC2CC3C4CCC5=CC(=O)C=CC5(C)C4C(O)CC3(C)C2(C(=O)COC(C)=O)O1 (stereo not drawn) [Compound 12],7.2
9,"CC(C)C(=O)OCC(=O)C12OC(C3CCCCC3)OC1CC1C3CC(F)C4=CC(=O)C=CC4(C)C3(F)C(O)CC12C [Compound 13, (22R,S)-pregna 1,4-diene-3,20-dione-16,17-(cyclohyxylmethylidine)-bis-(oxy)-6,9-difluoro-11-hydroxy-21-(methyl-1-oxo-propoxy)-(11β,16α)]",11
10,"CC(C)C(=O)OCC(=O)C12OC(C3CCCCC3)OC1CC1C3CC(F)C4=CC(=O)C=CC4(C)C3(F)C(O)CC12C [Compound 14, (22S)-pregna-1,4-diene-3,20-dione-16,17-(cyclohexylmethylidine)-bis-(oxy)-6,9-difluoro-11-hydroxy-21-(s-methyl-1-oxo-propoxy)-(11β,16α)]",15
11,CC(C)C(=O)OCC(=O)C12OC(C3CCCCC3)OC1CC1C3CC(F)C4=CC(=O)C=CC4(C)C3(F)C(O)CC12C (stereo not drawn) [Compound 15],9.9
12,"CC1(C)O[C@@H]2C[C@H]3[C@@H]4C[C@H](F)C5=CC(=O)C=C[C@]5(C)[C@H]4[C@@H](O)C[C@]3(C)[C@]2(C(=O)CO)O1 [FLUNISOLIDE, flunisolide, reference compound]",0.4
